Molecules are shown by their SMILES. Structures were worked out from names or drawings and are uncertain. Where only a bound is given, the exact number is not on record here.

Chains of the proteins cited; added tags and fusions are not shown. Residues count along the entry.
UniProt P35329, 22-708 limits assumed: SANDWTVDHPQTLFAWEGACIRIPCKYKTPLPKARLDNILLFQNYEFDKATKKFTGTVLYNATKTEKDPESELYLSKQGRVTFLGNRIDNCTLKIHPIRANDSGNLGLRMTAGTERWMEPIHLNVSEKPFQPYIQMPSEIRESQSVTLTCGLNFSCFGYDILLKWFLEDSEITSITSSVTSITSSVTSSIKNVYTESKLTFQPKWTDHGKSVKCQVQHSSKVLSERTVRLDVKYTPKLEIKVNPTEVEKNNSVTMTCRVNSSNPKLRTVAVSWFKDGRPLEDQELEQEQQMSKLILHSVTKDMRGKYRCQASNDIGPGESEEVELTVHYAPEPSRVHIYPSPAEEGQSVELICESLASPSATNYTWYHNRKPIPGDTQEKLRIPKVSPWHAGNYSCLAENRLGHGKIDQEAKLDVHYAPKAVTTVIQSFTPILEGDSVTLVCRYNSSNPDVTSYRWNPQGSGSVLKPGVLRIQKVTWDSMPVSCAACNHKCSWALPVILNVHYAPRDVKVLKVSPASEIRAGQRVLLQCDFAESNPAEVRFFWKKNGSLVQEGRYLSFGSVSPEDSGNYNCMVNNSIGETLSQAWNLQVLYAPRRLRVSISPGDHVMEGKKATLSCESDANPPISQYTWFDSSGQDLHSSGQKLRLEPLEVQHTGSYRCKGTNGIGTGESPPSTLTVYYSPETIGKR
UniProt P20273, 20-847 limits assumed: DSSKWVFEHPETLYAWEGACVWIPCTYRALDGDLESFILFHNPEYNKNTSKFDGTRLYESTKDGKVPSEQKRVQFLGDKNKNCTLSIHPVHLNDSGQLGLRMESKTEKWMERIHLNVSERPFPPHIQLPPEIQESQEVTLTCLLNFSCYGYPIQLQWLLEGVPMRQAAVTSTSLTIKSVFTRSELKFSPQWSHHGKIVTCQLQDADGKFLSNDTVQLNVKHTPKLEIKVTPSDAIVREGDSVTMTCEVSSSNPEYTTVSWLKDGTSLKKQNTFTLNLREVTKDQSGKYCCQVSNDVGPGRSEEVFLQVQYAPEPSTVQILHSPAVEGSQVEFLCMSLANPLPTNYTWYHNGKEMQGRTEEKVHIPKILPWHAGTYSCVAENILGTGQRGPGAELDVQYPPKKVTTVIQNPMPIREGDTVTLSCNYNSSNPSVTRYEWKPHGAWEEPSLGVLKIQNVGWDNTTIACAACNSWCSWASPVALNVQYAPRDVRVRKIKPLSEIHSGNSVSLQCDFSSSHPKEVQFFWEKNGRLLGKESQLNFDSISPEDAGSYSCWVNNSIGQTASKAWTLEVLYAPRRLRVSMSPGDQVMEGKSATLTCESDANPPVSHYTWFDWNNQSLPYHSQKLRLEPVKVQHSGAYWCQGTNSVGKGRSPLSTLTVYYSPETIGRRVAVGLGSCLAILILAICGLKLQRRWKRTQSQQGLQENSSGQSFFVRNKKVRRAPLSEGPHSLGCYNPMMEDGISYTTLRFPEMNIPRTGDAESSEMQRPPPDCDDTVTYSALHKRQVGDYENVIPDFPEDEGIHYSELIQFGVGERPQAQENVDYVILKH
UniProt A0A2K5WCZ6, 1-608 limits assumed: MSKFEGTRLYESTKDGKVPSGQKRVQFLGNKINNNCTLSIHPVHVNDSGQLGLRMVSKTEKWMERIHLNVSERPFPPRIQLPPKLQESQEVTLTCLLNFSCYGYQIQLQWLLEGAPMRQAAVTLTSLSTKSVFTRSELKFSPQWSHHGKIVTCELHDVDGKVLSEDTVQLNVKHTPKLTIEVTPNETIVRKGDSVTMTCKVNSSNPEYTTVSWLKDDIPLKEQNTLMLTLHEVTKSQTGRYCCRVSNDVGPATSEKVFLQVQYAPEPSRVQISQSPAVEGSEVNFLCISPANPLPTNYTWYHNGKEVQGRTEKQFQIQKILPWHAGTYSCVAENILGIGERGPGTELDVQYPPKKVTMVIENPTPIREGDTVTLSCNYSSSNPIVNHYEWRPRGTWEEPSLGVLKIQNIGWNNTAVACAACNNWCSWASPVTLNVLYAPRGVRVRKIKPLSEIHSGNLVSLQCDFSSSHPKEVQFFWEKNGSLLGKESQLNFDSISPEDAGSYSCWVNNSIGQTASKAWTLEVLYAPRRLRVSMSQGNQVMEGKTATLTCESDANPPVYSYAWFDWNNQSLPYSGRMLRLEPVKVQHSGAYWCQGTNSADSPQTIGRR

Experiment [1] deals with mouse Siglec-2-Fc-Avi (CD22) (Mus musculus, UniProt P35329). Briefly: SPR binding affinity to mouse CD22. The note with it: read-out: Affinity mouse CD22, steady-state analysis. (SPR reads the build-up and loss of mass on a sensor chip optically.)
For experiment [2], the target named is human Siglec-2/CD22 protein (Homo sapiens, UniProt P20273). The experiment is described as follows: SPR binding affinity to human CD22. The note with it: read-out: Affinity human CD22, steady-state analysis.
Experiment [3] has as its target cynomolgus Siglec-2/CD22 (Macaca fascicularis, UniProt A0A2K5WCZ6). The note with it: read-out: Affinity cyno CD22; SPR, steady-state analysis.

Take `C#CCOCCOCCO[C@]1(C(=O)O)C[C@H](O)[C@@H](NC(=O)CO)[C@H]([C@H](O)[C@H](O)CNC(=O)c2ccc(Oc3cccc(O)c3)cc2)O1`: the Kd is 1 to 10 µM in experiment [1], over 10 µM in experiment [2] and over 10 µM in experiment [3].

These data come from patent US20250064941A1, “SIGLEC LIGANDS, CONJUGATES, AND METHODS OF USE THEREOF” (Osprey Biopharmaceuticals, Inc., priority 2023, published 2025).
